{
  "sequences": {"note": "Sequences of proteins named here, by UniProt entry; tags and fusion partners are left off. Residues count along the entry.", "UniProt P00761, 9-231": "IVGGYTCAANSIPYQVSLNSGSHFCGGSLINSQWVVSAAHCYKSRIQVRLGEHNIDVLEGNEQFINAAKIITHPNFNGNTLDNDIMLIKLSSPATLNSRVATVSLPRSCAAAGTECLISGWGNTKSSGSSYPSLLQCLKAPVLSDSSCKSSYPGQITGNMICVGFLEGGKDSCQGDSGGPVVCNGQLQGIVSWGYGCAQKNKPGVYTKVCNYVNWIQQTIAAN"},
  "source": "patent US6855804B2",
  "about": "“Covalently reactive transition state analogs and methods of use thereof” (Board of Regents, The University of Texas System, priority 1998, dated 2005)",
  "key": {"[1]": {"molecular_target": "trypsin (porcine, type IX) (Sus scrofa, UniProt P00761)", "format": "biochemical"}, "[2]": {"tested_on": "VIPase antibody fragments", "format": "biochemical"}},
  "note": "For part of these data: For at least one compound, name, drawing or mass did not settle the structure. Some entries share one result that the patent states for a list of compounds.",
  "data": [
    {"compound": "N=C(N)c1ccc(C(NC(=O)OCc2ccccc2)P(=O)(O)Oc2ccccc2)cc1", "note": "(stereo not drawn) [Compound 2, Monophenyl N-(benzyloxycarbonyl)amino(4-amidinophenyl)methanephosphonate]", "values": [
      {"measurement": "k2, first-order rate constant for formation of covalent adduct", "setting": "[1]", "value": 0.47, "unit": "min⁻¹"},
      {"measurement": "ΔG of noncovalent enzyme-inhibitor interactions (ΔG=−RTlnKi)", "setting": "[1]", "value": 3.2, "unit": "kcal/mol"}
    ]},
    {"compound": "phenylphosphonate 4-nitrophenyl [N-(6-biotinylhexanediamin-1-yl)carboxymethyl]tropan-3-ol diester [diester II]", "values": [
      {"measurement": "inhibition of catalytic activity ((Tyr10-125I)VIP hydrolysis)", "setting": "[2]", "value": "at least 40%"}
    ]}
  ]
}
